Results are given in words; binding and its absence hold for the method and conditions named. Binding seen in cells or lysates may run through a third protein. Some entries that bind do so weakly or less than the wild type.
Assays:
Test in all cases: co-IP; HEK293FT cells transfected with Flag-tagged TEADs and KLF5; TEADs immunoprecipitated with the anti-Flag antibody, exogenous KLF5 looked for in the precipitate
[1] = target: Flag-TEAD4 (human) (UniProt Q15561)
[2] = target: Flag-TEAD3 (UniProt Q99594)
[3] = target: Flag-TEAD2 (UniProt Q15562)

Sequences of proteins named here, by UniProt entry; tags and fusion partners are left off.
UniProt Q15561: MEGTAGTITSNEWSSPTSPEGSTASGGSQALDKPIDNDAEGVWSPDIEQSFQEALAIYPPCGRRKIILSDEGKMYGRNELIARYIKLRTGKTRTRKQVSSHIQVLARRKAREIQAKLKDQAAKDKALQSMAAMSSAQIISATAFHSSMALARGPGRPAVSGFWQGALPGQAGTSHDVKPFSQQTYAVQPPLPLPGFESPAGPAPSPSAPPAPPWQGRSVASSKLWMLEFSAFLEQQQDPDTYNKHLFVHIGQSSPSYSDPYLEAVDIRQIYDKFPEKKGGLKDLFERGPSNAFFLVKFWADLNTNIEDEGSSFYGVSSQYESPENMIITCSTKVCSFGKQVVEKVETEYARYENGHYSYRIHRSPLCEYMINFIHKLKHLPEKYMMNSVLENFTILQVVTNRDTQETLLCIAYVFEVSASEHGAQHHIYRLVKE
UniProt Q99594: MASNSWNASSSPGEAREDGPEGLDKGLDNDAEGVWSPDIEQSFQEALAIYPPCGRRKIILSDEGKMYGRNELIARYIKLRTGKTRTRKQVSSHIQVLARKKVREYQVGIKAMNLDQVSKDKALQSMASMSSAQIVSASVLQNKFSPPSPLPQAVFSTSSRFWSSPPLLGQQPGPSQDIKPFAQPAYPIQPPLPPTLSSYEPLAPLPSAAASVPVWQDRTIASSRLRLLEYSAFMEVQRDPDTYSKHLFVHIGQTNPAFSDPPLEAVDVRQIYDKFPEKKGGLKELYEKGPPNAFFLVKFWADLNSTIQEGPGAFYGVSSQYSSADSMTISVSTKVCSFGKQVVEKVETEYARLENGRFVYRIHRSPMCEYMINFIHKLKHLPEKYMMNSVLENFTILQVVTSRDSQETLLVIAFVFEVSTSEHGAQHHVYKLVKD
UniProt Q15562: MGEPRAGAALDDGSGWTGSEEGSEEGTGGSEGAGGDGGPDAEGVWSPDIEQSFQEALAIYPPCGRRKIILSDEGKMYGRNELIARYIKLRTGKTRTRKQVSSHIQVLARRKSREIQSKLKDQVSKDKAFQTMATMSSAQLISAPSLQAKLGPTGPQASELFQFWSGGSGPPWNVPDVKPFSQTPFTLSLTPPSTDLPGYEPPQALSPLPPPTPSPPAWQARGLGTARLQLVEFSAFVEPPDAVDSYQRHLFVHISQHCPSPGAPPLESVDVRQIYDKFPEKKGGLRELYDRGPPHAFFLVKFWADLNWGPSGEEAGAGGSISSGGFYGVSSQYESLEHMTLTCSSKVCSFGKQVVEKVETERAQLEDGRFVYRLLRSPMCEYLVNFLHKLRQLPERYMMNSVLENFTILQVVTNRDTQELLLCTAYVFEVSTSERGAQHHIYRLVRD
UniProt Q13887: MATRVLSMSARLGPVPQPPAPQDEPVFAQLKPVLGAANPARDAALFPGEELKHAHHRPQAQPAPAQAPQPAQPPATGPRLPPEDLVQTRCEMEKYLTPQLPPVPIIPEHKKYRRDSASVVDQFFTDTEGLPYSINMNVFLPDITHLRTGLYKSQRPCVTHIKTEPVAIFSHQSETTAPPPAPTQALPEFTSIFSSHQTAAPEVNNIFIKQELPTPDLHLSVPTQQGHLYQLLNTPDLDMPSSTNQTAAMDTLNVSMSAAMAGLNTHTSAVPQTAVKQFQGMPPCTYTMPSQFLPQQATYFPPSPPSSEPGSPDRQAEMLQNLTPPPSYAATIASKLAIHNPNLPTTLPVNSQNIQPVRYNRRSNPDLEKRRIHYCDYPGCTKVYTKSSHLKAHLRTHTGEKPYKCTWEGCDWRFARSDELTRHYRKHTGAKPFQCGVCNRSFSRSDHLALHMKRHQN

KLF5 (from UniProt Q13887 1-457)
binding [1]: binds
binding [2]: no binding
binding [3]: no binding
